From PubChem BioAssay AID1671192 (National Center for Advancing Translational Sciences (NCATS), 2021)
The inconclusive results got no clear call from the source; some entries with a clear call stand among them for comparison. Potencies of inconclusive entries are doubtful fits and often do not repeat. Calls of active or inactive are those of the source. Calls come from the whole dose curve; as a rule, active = well fitted curve in the direction sought with a large enough effect; inconclusive = small, poorly fitted or top-dose-only effect, or another doubt; inactive = no such curve, though single readings can be large or run the other way.

The chains behind the UniProt entries cited, without tags or fusion partners. Where a name states a change or a piece, a line headed by the entry shows the natural chain unless it says otherwise.
UniProt P16050: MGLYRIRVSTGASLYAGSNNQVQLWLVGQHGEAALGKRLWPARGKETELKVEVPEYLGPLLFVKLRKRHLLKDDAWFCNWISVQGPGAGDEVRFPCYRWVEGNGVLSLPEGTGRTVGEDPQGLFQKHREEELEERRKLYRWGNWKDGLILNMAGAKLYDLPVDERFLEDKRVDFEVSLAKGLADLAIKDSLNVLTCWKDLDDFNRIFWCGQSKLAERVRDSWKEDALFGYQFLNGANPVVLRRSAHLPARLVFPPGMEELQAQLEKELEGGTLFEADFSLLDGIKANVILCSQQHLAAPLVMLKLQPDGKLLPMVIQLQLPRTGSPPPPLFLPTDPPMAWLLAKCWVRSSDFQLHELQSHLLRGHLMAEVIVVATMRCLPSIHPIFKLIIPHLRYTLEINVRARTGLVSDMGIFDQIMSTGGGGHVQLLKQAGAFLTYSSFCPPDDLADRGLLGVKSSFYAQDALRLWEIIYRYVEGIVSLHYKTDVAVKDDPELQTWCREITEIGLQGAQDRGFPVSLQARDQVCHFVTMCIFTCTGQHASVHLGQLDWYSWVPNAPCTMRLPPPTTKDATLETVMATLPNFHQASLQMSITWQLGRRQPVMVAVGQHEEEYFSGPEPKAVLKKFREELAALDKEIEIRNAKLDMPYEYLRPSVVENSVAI

These molecules were tested against Polyunsaturated fatty acid lipoxygenase ALOX15 (Homo sapiens) (UniProt P16050) (assay: Counterscreen qHTS for inhibitors of human arachidonate 12S-lipoxygenase (ALOX12): ALOX15 Assay). Details: purified ALOX15 enzyme activity; activity change, negative = inhibition: at 110 µM (top of the series) unless noted.
How it was run: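 Xylenol orange–ferric complex formation, read as the 573 nm to 405 nm absorbance ratio, tracks product from 50 uM arachidonic acid turned over for 30 min at RT. Enzyme is 40 nM ALOX15, pH 7.5 HEPES buffer, compound-preincubated 15 min.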
Throughout, for activity change, negative = inhibition: 0% is about no effect.

Compound | Potency | activity change, negative = inhibition
CC(=O)N1CC2(CCCN(CC3CCCCC3)C2)Cc2ccccc21 (configuration not stated) | inconclusive: 0.0489 µM [inhibitor, full curve] | 
CCc1ccc(CN2CCCCC23Cc2ccccc2CNC3=O)cc1 (configuration not stated) | inconclusive: 62.2 µM [inhibitor, partial curve] | 
O=C1NCc2ccccc2CC12CCN(Cc1c(F)cccc1F)C2 (configuration not stated) |  | inactive: -9.7%
COCCNC(=O)c1cc(C2CC2)nc2onc(C3CCCN3)c12 (configuration not stated) |  | inconclusive: -30.8% [inhibitor] [at 146 µM]
Cn1nc(C2CCNC2)c2c(C(=O)NCc3cccs3)cc(C3CC3)nc21 (configuration not stated) | inconclusive: 49.4 µM [inhibitor, single point] | 
O=C(c1ccc2c(c1)OCO2)N1CCCC1c1nnc2n1CCNC2 (configuration not stated) |  | inactive: -14.1%
O=[S+]([O-])(c1ccccc1)N1CC(Oc2ccc(F)c(F)c2)C1 |  | inactive: -9.6% [at 146 µM]
C=C(CC)CN1CCCC12Cc1ccccc1CNC2=O (configuration not stated) | inconclusive: 160 µM [inhibitor, single point] | 
O=C(c1ccccc1)N1CCC2(CC1)C(=O)NCN2C(=O)CCCN1CCCC1 | inconclusive: 0.0111 µM [inhibitor, full curve, poor fit] | 
COCCCNC(=O)c1cc(C2CC2)nc2onc(C3CCCN3)c12 (configuration not stated) | inconclusive: 98.7 µM [inhibitor, single point] | 
CN1CCC2(Cc3ccccc3CN(C(=O)Cc3cccc(Cl)c3)C2)C1 (configuration not stated) | inconclusive: 9.87 µM [inhibitor, full curve] | 
CN(C)c1ccc(CN2CC(Oc3ccc(F)c(F)c3)C2)cc1 | inconclusive: 69 µM [inhibitor, partial curve, poor fit] | 
